Reference: PMC10039029
Results are given in words; binding and its absence hold for the method and conditions named. In cells and extracts the contact can be indirect. A yes stands for co-enrichment or nearness to the bait. Other partners may have been found.

Amino acid sequences for entries named in this document (tags omitted).
UniProt Q7TSC1: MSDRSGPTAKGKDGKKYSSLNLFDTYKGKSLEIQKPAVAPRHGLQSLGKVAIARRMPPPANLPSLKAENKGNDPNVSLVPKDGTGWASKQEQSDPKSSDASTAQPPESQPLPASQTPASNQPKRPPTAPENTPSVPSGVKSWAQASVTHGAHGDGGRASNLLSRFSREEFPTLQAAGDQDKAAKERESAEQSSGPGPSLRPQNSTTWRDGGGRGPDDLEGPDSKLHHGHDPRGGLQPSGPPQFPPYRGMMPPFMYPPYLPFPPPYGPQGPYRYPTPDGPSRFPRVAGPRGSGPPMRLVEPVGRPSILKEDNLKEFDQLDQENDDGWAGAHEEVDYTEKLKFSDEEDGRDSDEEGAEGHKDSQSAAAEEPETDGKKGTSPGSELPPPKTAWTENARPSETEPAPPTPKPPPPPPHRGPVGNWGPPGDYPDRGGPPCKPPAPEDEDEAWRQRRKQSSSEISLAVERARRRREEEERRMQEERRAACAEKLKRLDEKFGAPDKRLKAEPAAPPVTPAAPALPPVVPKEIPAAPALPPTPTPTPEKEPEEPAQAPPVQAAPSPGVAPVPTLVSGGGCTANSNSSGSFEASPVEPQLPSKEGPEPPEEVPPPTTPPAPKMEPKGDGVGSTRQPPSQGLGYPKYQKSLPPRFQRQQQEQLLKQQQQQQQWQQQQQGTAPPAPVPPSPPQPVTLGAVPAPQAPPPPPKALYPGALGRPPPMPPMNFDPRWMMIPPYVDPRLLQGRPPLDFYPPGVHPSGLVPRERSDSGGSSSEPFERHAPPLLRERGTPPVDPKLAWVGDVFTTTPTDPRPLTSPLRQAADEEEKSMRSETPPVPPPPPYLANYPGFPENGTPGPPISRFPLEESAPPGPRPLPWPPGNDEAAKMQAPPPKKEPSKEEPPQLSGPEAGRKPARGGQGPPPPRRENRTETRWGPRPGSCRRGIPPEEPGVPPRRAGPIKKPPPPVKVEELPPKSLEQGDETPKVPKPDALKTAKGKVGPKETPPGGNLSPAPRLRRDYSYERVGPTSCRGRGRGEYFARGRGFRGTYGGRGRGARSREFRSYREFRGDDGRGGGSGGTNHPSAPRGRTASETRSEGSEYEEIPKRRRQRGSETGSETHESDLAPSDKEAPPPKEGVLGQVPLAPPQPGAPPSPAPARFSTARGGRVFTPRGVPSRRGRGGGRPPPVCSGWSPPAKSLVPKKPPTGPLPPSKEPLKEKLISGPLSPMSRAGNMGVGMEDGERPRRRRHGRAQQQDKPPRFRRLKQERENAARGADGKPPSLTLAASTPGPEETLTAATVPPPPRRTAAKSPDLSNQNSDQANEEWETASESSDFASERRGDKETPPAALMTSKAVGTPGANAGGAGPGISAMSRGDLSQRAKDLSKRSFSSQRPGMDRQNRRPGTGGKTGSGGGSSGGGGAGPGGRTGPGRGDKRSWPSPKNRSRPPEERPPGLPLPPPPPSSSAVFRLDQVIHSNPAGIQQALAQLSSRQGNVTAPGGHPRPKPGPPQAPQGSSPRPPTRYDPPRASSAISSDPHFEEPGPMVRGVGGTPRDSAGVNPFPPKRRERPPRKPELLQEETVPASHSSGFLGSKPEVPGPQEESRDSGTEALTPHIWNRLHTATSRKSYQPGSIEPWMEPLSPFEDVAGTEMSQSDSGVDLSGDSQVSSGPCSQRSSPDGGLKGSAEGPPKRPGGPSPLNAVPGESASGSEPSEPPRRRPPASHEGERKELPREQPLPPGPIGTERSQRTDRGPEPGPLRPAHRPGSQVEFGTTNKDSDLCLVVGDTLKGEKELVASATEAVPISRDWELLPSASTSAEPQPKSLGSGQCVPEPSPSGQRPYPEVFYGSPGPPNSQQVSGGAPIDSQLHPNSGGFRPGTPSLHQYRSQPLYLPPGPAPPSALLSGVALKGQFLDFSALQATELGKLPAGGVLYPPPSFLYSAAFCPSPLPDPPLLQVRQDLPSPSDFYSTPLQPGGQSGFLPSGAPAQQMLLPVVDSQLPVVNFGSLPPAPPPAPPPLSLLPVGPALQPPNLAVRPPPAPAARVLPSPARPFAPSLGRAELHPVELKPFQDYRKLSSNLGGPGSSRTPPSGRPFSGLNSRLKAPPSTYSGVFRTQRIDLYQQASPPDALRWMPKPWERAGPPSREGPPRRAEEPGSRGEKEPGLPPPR
UniProt Q61584: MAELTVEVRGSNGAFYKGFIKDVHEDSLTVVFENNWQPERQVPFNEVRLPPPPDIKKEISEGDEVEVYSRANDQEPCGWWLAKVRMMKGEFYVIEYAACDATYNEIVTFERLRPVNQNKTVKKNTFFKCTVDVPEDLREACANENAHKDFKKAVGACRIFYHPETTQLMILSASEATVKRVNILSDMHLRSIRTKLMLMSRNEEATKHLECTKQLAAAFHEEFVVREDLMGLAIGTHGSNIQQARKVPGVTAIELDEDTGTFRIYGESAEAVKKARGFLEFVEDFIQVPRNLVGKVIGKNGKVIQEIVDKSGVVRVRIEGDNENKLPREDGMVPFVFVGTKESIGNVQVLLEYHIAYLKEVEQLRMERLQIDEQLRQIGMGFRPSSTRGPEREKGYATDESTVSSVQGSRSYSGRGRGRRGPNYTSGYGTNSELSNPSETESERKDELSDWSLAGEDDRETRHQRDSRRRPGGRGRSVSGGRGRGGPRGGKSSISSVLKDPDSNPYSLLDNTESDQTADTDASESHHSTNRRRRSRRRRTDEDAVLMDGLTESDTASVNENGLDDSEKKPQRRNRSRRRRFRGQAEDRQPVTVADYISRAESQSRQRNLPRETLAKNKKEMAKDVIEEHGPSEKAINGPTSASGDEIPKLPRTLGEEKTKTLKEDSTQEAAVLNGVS

Biological target: Proline rich coiled-coil 2A (PRRC2A) with a 3×flag tag, from Prrc2a-flag knock-in mice (mouse) (UniProt Q7TSC1)
Assay: affinity purification with mass spectrometry; eight P20 Prrc2a-flag and wild-type testes; anti-Flag on Protein G magnetic beads; eluted with 0.2 mg/mL Flag peptide in NT2 buffer; SDS-PAGE, silver staining, in-gel trypsin digestion, LTQ Orbitrap Velos

## fragile-X mental retardation autosomal 1 (FXR1) (from UniProt Q61584 1-677)
  binding: binds
